Measured values as given in US7015013B2, “Method for localized staining of an intact corneal tissue surface” (3D Vision Systems, LLC, priority 2003, dated 2006).

What was measured:
human dermis = assay: Localized ring staining of human dermis with concentric-circle device; settings: 50 mg/mL in 0.2M disodium phosphate, pH 9.0, 2 minutes
Source text: The device for applying the sulfonic acid dye or stain to the corneal surface is composed of a series of concentric circles. The center of the concentric circles is solid and is seated on the corneal apex, preventing exposure of the central cornea to the sulfonic acid dye or stain. An intermediate concentric circle is open to the surface of the cornea allowing exposure of this surface to the sulfonic acid dye or stain. The outer circle is also solid and seated firmly on the corneal surface preventing exposure of the corneal surface to the sulfonic acid dye or stain. The width of the intermediate concentric circle can be adjusted to allow exposure of the corneal surface to predetermined widths of sulfonic acid dye or stain. Thus, a ring of predetermined width can be formed on the corneal surface for specific therapeutic applications. In one design, a port is fabricated fitting the end of a 1.0–2.5 cc syringe. Dye or stain solution is injected into the open ring through this delivery port to treat the exposed tissue surface. The dye or strain is also removed using this port and rinse solutions applied to remove unbound dye or stain. The extent of tissue staining is dependent on the concentration of the dye or stain, exposure time, and the pH of the exposed tissue. Other configurations for delivery devices can be fabricated to stain or dye predetermined regions of the cornea surface for Cosmesis. For example, a dry sponge, pre-dosed with an appropriate amount of black stain or dye is fabricated to specific dimensions such that when the dry, pre-dosed sponge is wet, the dye is delivered to the exposed tissue surface. The dry, pre-dosed sponge is fabricated in the form of a thin ring. The ring is then placed in a delivery device. Fluid is then applied to the ring causing it to wet and instantly deliver the pre-dosed dye or stain to the exposed tissue surface to form a black ring in the same dimensions as the delivery ring. The delivery ring may be fabricated in different dimensions, thickness and diameter to apply the desired stain dimensions. […]

cat cornea = assay: Staining of corneal surface of a preserved cat eye
Procedure: A preserved cat eye, with intact cornea, vitreous and scleral tissue, was removed from the preservation solution and placed in a bath of 0.2M disodium phosphate, pH 9.2, for 2 minutes. The eye was then removed from the bath and placed in a holding device allowing the cornea to be exposed for treatment. Reactive Black 5 dissolved in 0.2M disodium phosphate, pH 9.2, was applied to the entire exposed surface of the cat cornea. After 1 minute, the cornea was thoroughly washed with 0.1M phosphate buffer, pH 7.2, to remove unbound dye. […] A thin ring was etched into the corneal surface using a scalpel blade. Reactive Black 5 solution was again applied to the corneal surface. After 1 minute, the cornea was thoroughly washed with 0.1M phosphate buffer, pH 7.2 until the wash solution appeared clear and colorless. […] Similar techniques will be useful for cosmesis to cover corneal scars or to create a pupil in aniridia. In addition, a corneal ring can be formed on the corneal surface to improve depth of focus for certain refractive errors and to restrict light scatter in certain corneal opacities. Furthermore, a similar corneal ring has potential applications in restricting orientation of light rays striking the macular in age related Macular Degeneration.

`Nc1c(N=Nc2ccc(S(=O)(=O)CCOS(=O)(=O)[O-])cc2)c(S(=O)(=O)[O-])cc2cc(S(=O)(=O)[O-])c(N=Nc3ccc(S(=O)(=O)CCOS(=O)(=O)[O-])cc3)c(O)c12.[Na+].[Na+].[Na+].[Na+]` [Reactive Black 5] was tested, and the “bleeding of dye into unexposed tissue” value (human dermis) was “Minimal bleeding”, the “width of stained ring” value (human dermis) was “approximately 1.5 mm” and the “stain formed on dermal tissue surface” value (human dermis; exposed concentric ring) was “thin deep blue-black ring”. The “appearance of corneal surface after etching a thin ring with scalpel blade and restaining” value (cat cornea; dye applied again for 1 minute, washed with 0.1M phosphate buffer, pH 7.2) was “thin ring of deep blue-black color”, the “appearance of intact cornea surface after staining” value (cat cornea; dye in 0.2M disodium phosphate, pH 9.2, 1 minute, entire exposed cornea, not etched) was “faintly blue-black” and the “appearance of scleral ring surrounding the eye where dye leaked” value (cat cornea; dye in 0.2M disodium phosphate, pH 9.2, sclera) was “deep blue-black”.
